# About 4,300 (3.1%) of roughly 140,000 compounds were called active. Inconclusive results, whose numbers are uncertain, are shown with a selection of clear calls.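 The calls were made as follows: active = readout at or below -70, meaning at least 70% loss of cells showing the perinucleolar compartment, a nuclear body marking cancer cells; inconclusive = readout between -30 and a set limit; inactive = the rest.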
# Test: High Content Assay for Compounds that inhibit the Assembly of the Perinucleolar Compartment;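 also: plate controls were DMSO wells for no effect and camptothecin positive control wells for full effect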
# Details: PC3M PTB-GFP, PNC prevalence imaging, 16 h; at 10 µM; hits give low values
# Method in brief: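 Compounds are pinned in duplicate onto adhered PC3M cells stably expressing GFP-tagged PTB and incubated 16 h at 37 C. Cells are then fixed, nuclei stained with Hoechst, and PNC-positive cells counted.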
row,SMILES,"activity change (PNC), negative = inhibition"
1,O=c1c2ccccc2cnn1Cc1n[nH]c(=S)n1-c1cc(Cl)cc(Cl)c1,inconclusive: -72.8%
2,c1ccc(-c2nc(-c3cccnc3)n[nH]2)cc1,inconclusive: -64.6%
3,O=C1COc2ccc(C(=O)CSc3nnnn3-c3ccccc3)cc2N1,inconclusive: -36%
4,Cc1ccc(C(C(=O)NC2CCCC2)N2CCCCC2)cc1 (centres undefined),inactive: -16.5%
5,CNc1nc(SC)nc2ccsc12,inconclusive: -56.8%
6,O=[N+]([O-])c1cc(F)c(N2CCCCC2)cc1N1CCOCC1,inconclusive: -34.5%
7,CCN(CC)C(=O)CSc1nnc(-c2ccc(O)cc2)n1CC1CCCO1 (centres undefined),inconclusive: -34.6%
8,O=C(NCCO)c1cc2ccccc2c(=O)s1,inconclusive: -61.4%
9,O=C(c1cnn2c(C(F)(F)F)cc(-c3ccc(Br)cc3)nc12)N1CCOCC1,inconclusive: -32.8%
10,Cc1ccc(-n2nnnc2SCC(=O)c2cc(C)n(-c3cc(C)on3)c2C)cc1,inactive: -27%
11,Cc1cc(C)n(-c2nc3c(c(=O)[nH]c(=O)n3C)n2CC(O)c2ccccc2)n1 (centres undefined),inconclusive: -62.7%
12,COc1ccc(CCNC(=O)c2cc(-c3cc(C)ccc3O)n[nH]2)cc1OC,inconclusive: -56.3%
13,CCOC(=O)N1CCC(NC(=O)CCC(=O)c2ccccc2)CC1,inconclusive: -57.9%
14,CCCC(=O)Nc1nc2ccc(OC)cc2s1,inconclusive: -61%
15,Cc1cc2c3nonc3ccc2n1C,inconclusive: -65.8%
16,CS(=O)(=O)c1ccc2nc(NC(=O)CCC(=O)c3cccs3)sc2c1,inactive: -22.6%
17,O=C(COC(=O)C1(c2ccccc2F)CCCC1)N1CCOCC1,inconclusive: -48.3%
18,Cc1cc(/C=N/n2cnnc2)c(O)c([N+](=O)[O-])c1,active: -118%
19,CCOc1ccc(Oc2c(/C=N/NC(=O)COc3ccccc3OC)c(C)nn2-c2ccccc2)cc1,inconclusive: -32.6%
20,COc1ccccc1Nc1nnc(SCc2nnc(-c3cc(OC)c(OC)c(OC)c3)o2)s1,inconclusive: -38.6%

# Another view of some results above.
row | SMILES | activity change (PNC), negative = inhibition
13 | CCOC(=O)N1CCC(NC(=O)CCC(=O)c2ccccc2)CC1 | inconclusive: -57.9%
14 | CCCC(=O)Nc1nc2ccc(OC)cc2s1 | inconclusive: -61%

# Remaining list, next part:

row,SMILES,"activity change (PNC), negative = inhibition"
1,O=[N+]([O-])c1ccc(Cl)c(/C=N/n2c(C3CCCCC3)n[nH]c2=S)c1,inactive: -18.9%
2,Clc1ccc2c(N3CCCC3)ccnc2c1,inconclusive: -65.3%
3,CCN(CC)C(=O)CSc1nc(-c2ccco2)cc(C(F)(F)F)c1C#N,inconclusive: -50.7%
4,CCOc1ccc(OCC)c(S(=O)(=O)NCc2ccc3c(c2)OCO3)c1,inconclusive: -75%
5,Cc1cc(C(=O)NC(=S)Nc2cccc(NC(=O)C(C)C)c2)ccc1[N+](=O)[O-],inconclusive: -43%
6,O=C1c2ccccc2N2C(=O)c3ccccc3C2N1O (centres undefined),inconclusive: -36.4%
7,CCOC(=O)c1c(NC(=O)c2cc(-c3ccc(O)cc3)on2)sc(C(C)=O)c1C,inactive: 24.5%
8,Cc1ccc(NC2=NCCCCC2)cc1,inconclusive: -31.8%
9,O=C(NCc1ccco1)C12CN(Cc3ccccc3)CC1C(c1cccc([N+](=O)[O-])c1)=NO2 (centres undefined),active: -86.1%
10,COc1ccc(CCNC(=O)CSCc2ccc(Cl)cc2)cc1OC,inconclusive: -66.1%
11,CSc1ccccc1NC(=O)c1ccco1,inactive: -7.59%
12,O=C(Nc1nnc(SCc2ccccc2)s1)c1cc2c(s1)CCCC2,inactive: -5.56%
13,CCn1c2ccccc2c2cc(NC(=O)COC(=O)Cc3cn4ccsc4n3)ccc21,inconclusive: -31.7%
14,CCOC(=O)CSc1nsc(SCC(=O)OCC)c1C#N,active: -100%
15,Cc1csc2ncc(C(=O)NCc3ccc4c(c3)OCO4)c(=O)n12,inconclusive: -49.6%
16,O=C(CSc1nnc(-c2ccc(F)cc2)o1)c1ccc2c(c1)OCCO2,inactive: -20.9%
17,Oc1ccc(-c2nc3ncccn3c2Nc2ccc3c(c2)OCO3)cc1,inconclusive: -43.3%
18,COc1cccc(NC(=O)CSCc2n[nH]c(=O)[nH]2)c1,inconclusive: -31.8%
19,Cc1cc(NC(=O)CSc2nnc(Cn3c(=O)sc4ccccc43)n2-c2ccccc2C)no1,inactive: -18.1%
20,O=C(Cc1ccc(Cl)cc1)Nc1ccccc1CO,active: -86.9%

# Given as tab-separated lines: entries from further up
row	SMILES	activity change (PNC), negative = inhibition
3	CCN(CC)C(=O)CSc1nc(-c2ccco2)cc(C(F)(F)F)c1C#N	inconclusive: -50.7%
4	CCOc1ccc(OCC)c(S(=O)(=O)NCc2ccc3c(c2)OCO3)c1	inconclusive: -75%

# Going on with the list:

row,SMILES,"activity change (PNC), negative = inhibition"
1,O=C(c1ccco1)N1CCN(C(=O)c2ccc(COc3ccc4c(c3)CCC4)o2)CC1,inactive: -27.3%
2,CCCNCC1COc2ccccc2O1 (centres undefined),inactive: 10.8%
3,COc1ccc(C(=O)NC(C(=O)N2CCc3ccccc32)C(C)C)cc1 (centres undefined),inconclusive: -70.4%
4,CC1=NN(C(=O)c2csc(C(C)C)c2)C(O)(C(F)(F)F)C1 (centres undefined),inactive: 42.1%
5,CCOC(=O)c1c(NC(=O)CSc2nc3ccccc3o2)sc(C)c1C,inconclusive: -37.6%
6,CCN(CC)C(=O)CSc1nnc(CNc2ccc(F)cc2)o1,inactive: 7.15%
7,CCOC(=O)C1CCCN(c2c(Nc3cc(C)cc(C)c3)c(=O)c2=O)C1 (centres undefined),inconclusive: -38.5%
8,C=CCNCCOc1ccccc1-c1ccccc1,inconclusive: -36.4%
9,Cc1ccc(CNC(=O)c2coc(=O)c3ccccc23)o1,inconclusive: -50.7%
10,N#Cc1cc(Oc2ccccc2)c(-n2nnc3ccccc32)cc1C#N,inconclusive: -43.3%
11,O=C(O)C1C2CCC(C2)C1C(=O)Nc1nc2ccccc2s1 (centres undefined),inconclusive: -50.4%
12,Cc1ccc(C)c(SCC(=O)Nc2cccc(S(=O)(=O)NC3=NCCCCC3)c2)c1,inconclusive: -68.6%
13,Cc1ccccc1N1CN(Cc2ccco2)CNC1=S,inconclusive: -33.5%
14,Cc1cc(F)ccc1S(=O)(=O)N1CCCOC1CNC(=O)C(=O)NCc1ccco1 (centres undefined),inconclusive: -49.5%
15,O=C(C(=O)N1CCc2ccccc2C1)c1cn(CC(=O)N2CCCCC2)c2ccccc12,inactive: -12.1%
16,CCOC(=O)c1ccc2nc(NC(NC(C)=O)(C(=O)OC)C(F)(F)F)sc2c1 (centres undefined),inconclusive: -39.1%
17,NNC(=O)c1ccc(Cn2cc(Br)cn2)cc1,active: -114%
18,Cc1ccccc1NC(=O)c1ccc(Cl)c(NC(=O)c2ccncc2)c1,inconclusive: -55%
19,Cc1ccc(C)c(Oc2cc(NC(=O)CCCn3nc(C)c([N+](=O)[O-])c3C)cc([N+](=O)[O-])c2)c1,inactive: -27.8%

# Source: PubChem BioAssay AID2417 (National Center for Advancing Translational Sciences (NCATS), 2010)
